# Source: publication PMC3174158
# Results are given in words; binding and its absence hold for the method and conditions named. For part of these data: Binding seen in cells or lysates may run through a third protein. Some results given as binding are weak or reduced against the parent protein; the word gives no strength. Sequences can lack the tags named with a protein.
# B1: un-labeled MBP-II^Glc (protein, UniProt P69786 1-477)
# chain: MFKNAFANLQKVGKSLMLPVSVLPIAGILLGVGSANFSWLPAVVSHVMAEAGGSVFANMPLIFAIGVALGFTNNDGVSALAAVVAYGIMVKTMAVVAPLVLHLPAEEIASKHLADTGVLGGIISGAIAAYMFNRFYRIKLPEYLGFFAGKRFVPIISGLAAIFTGVVLSFIWPPIGSAIQTFSQWAAYQNPVVAFGIYGFIERCLVPFGLHHIWNVPFQMQIGEYTNAAGQVFHGDIPRYMAGDPTAGKLSGGFLFKMYGLPAAAIAIWHSAKPENRAKVGGIMISAALTSFLTGITEPIEFSFMFVAPILYIIHAILAGLAFPICILLGMRDGTSFSHGLIDFIVLSGNSSKLWLFPIVGIGYAIVYYTIFRVLIKALDLKTPGREDATEDAKATGTSEMAPALVAAFGGKENITNLDACITRLRVSVADVSKVDQAGLKKLGAAGVVVAGSGVQAIFGTKSDNLKTEMDEYIRNH
# B2: MBP-II^Glc-CFP (protein, UniProt P69786 1-477)
# chain: B1 chain
# What was measured:
# [1] = target: T1, MBP-II^Glc-CFP (E. coli) (UniProt P69786); assay: FRET or BRET; in vitro FRET competition; crude peak 1 CFP (5.2 mg) and peak 1 YFP (26 mg) fused proteins mixed with 0 to 338.1 mg crude un-labeled peak 1 MBP-II^Glc, solubilized with Triton X100 and purified on amylose
# T1 sequence: B1 chain
# [2] = target: T2, MBP-II^Glc-YFP (E. coli) (UniProt P69786); assay: condition: only peak 1 proteins purified separately and mixed without detergent (CFP/YFP ratios 1/1, 1/6, 1/10, 1/20); FRET or BRET; in vitro FRET in a cuvette, excitation 436 nm, emission 440-700 nm; peak 1 CFP and peak 1 YFP fused proteins purified separately on amylose, then mixed; no detergent; 20 mM Tris-HCl, 200 mM NaCl, 1 mM EDTA, 1 mM DTT, 10 mM maltose; both purified
# T2 sequence: B1 chain
# [3] = target: T2, MBP-II^Glc-YFP (E. coli); assay: condition: only peak 2 proteins purified separately before mixing, no detergent; FRET or BRET; in vitro FRET; peak 2 CFP and peak 2 YFP fused proteins purified separately on amylose, then mixed; no detergent; both purified
# [4] = target: T2, MBP-II^Glc-YFP (E. coli); assay: condition: only crude peak 1 proteins mixed and purified without detergent treatment; FRET or BRET; in vitro FRET; crude peak 1 CFP and peak 1 YFP fused proteins mixed, then purified on amylose; no detergent; elution buffer with 10 mM maltose
# [5] = target: T2, MBP-II^Glc-YFP (E. coli); assay: condition: only peak 1 proteins purified separately, then mixed and Triton X100 treated, not purified again; FRET or BRET; in vitro FRET; peak 1 CFP and peak 1 YFP fused proteins purified separately, mixed, treated with 0.1% Triton X100 and analysed without further purification; both purified
# [6] = target: T2, MBP-II^Glc-YFP (E. coli); assay: condition: only with 32.3 or 64 mg crude un-labeled MBP-II^Glc as competitor (5.2 mg CFP and 26 mg YFP fused protein); FRET or BRET; in vitro FRET competition; crude peak 1 CFP (5.2 mg) and peak 1 YFP (26 mg) fused proteins mixed with 0 to 338.1 mg crude un-labeled peak 1 MBP-II^Glc, solubilized with Triton X100 and purified on amylose
Binder,binding [1],binding [2],binding [3],binding [4],binding [5],binding [6]
B1,binds,,,,,
B2,,no binding,no binding,no binding,no binding,no binding
